Data as given in PubChem BioAssay AID504793 (Drosophila RNAi Screening Center, 2011).
Assay: 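Whole-genome screen for parts of the DNA damage checkpoint at G2/M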 (primary screen). Cell system: Drosophila S2R+ cells. Reagents: long dsRNA against Drosophila genes, about 0.25 µg dsRNA per well. Timing: 4 days of dsRNA, then 4 hours of drug before read-out. Treatment: doxorubicin 0.5 µM for 4 hours to cause double-strand breaks, in cells also given a low, harmless dose of dsRNA against nbs to sensitise the assay. Read-out: 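Mitotic index as the number of phospho-histone H3-positive cells in each well following doxorubicin, given as raw counts without normalisation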. Scale: mitotic cells: higher = more cells in mitosis, weaker G2 arrest. Rule for the call: 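Genes are called active only when high mitotic counts were reproduced with independent dsRNAs and mitosis was checked for delay without damage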. Calls: active = confirmed in follow-up tests; inactive = not confirmed.
The screen tested about 23,000 reagents; below is a random part of those that have a named target and a result. Over the whole deposit, 62 (0.27%) were called active. 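Calls come from follow-up tests whose scores are not deposited, so confirmed genes may have low counts here; counts are not normalised per plate.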 Raw values are not corrected between plates. Names joined by + are all predicted targets of the reagent.

Target gene	DRSC id	mitotic cells, replicate 1	mitotic cells, replicate 2	Outcome
fuss	DRSC17200	7		inactive
fuss	DRSC21452	9		inactive
CG12641 (retired record)	DRSC23059	16		inactive
CG4704	DRSC15628	9		inactive
jus	DRSC23018	11		inactive
jus	DRSC26804	9		inactive
CG2519	DRSC12312	9		inactive
polybromo	DRSC14307	2		inactive
Gyc88E	DRSC15547	3		inactive
CG33257	DRSC09917	4		inactive
pncr003:2L (retired record)	DRSC22149	11	11	inactive
pncr003:2L (retired record)	DRSC29855	4	8	inactive
pncr003:2L (retired record)	DRSC39126	8		inactive
Gbp3	DRSC15206	7		inactive
CG42307 + mus312	DRSC11008	3		inactive
CG42307 + mus312	DRSC27742	40		active
Obp58c	DRSC04166	2		inactive
Gyc32E	DRSC01154	10		inactive
Gyc32E	DRSC29757	13		inactive
CG14073	DRSC10078	4		inactive
CG14073	DRSC27001	5		inactive
Fer3	DRSC16133	10		inactive
Fer3	DRSC26669	8		inactive
DIP2	DRSC08582	1		inactive
CG18585	DRSC02678	3		inactive
CG33178	DRSC19950	9		inactive
CG8260	DRSC20098	13		inactive
CG17019	DRSC06642	5		inactive
eEF1gamma	DRSC16659	5		inactive
eEF1gamma	DRSC23655	5		inactive
CG17650	DRSC00510	7		inactive
ppk23	DRSC20110	7		inactive
ppk23	DRSC26441	4		inactive
CG15484	DRSC02494	15		inactive
CG15484	DRSC22836	14		inactive
Mdh1 (retired record)	DRSC02846	7		inactive
JYalpha (retired record) + JYalpha	DRSC21700	7		inactive
CG8191	DRSC20091	22		inactive
AcCoAS	DRSC11477	13		inactive
AcCoAS	DRSC11603	10		inactive
AcCoAS	DRSC22850	11		inactive
AcCoAS	DRSC25972	8		inactive
COX6B	DRSC19590	7		inactive
COX6B	DRSC27409	3		inactive
Hdc	DRSC07439	7		inactive
Hdc	DRSC25907	10		inactive
SkpA	DRSC18833	21		active
SkpA	DRSC25163	7		inactive
Trmt6	DRSC03272	8		inactive
Cpr65Ax2 + Cpr65Ax1	DRSC10341	6		inactive
Cpr65Ax2 + Cpr65Ax1	DRSC10344	4		inactive
corn	DRSC11021	4		inactive
corn	DRSC21943	4		inactive
corn	DRSC27306	5		inactive
CtsK1	DRSC08742	6		inactive
slo	DRSC17057	8		inactive
CG17672	DRSC09230	12		inactive
CG17672	DRSC10278	6		inactive
PMP34	DRSC21939	4		inactive
Nup54	DRSC07282	6		inactive
CG18530	DRSC15341	5		inactive
CG6340	DRSC19987	3	9	inactive
CG6340	DRSC25288	7		inactive
CG32236	DRSC08117	10		inactive
htl	DRSC16968	4		inactive
htl	DRSC36668	12		inactive
CG3909	DRSC14150	8		inactive
CG11694	DRSC14354	5		inactive
CG11694	DRSC24061	2		inactive
CG11975	DRSC14452	5		inactive
CG12011	DRSC08219	6		inactive
CG12011	DRSC27315	11		inactive
CG13086	DRSC02190	9		inactive
CG13086	DRSC27538	9		inactive
bnl	DRSC13377	5		inactive
bnl	DRSC23212	8		inactive
bnl	DRSC29056	6		inactive
glu	DRSC03539	13		inactive
glu	DRSC26151	8		inactive
Prdm13	DRSC09970	8		inactive
CG9997	DRSC16591	13		inactive
CG9997	DRSC29613	5		inactive
CG10035	DRSC14177	1		inactive
CG10035	DRSC28663	4		inactive
Lamtor4	DRSC08436	3		inactive
Gbp1	DRSC06592	13		inactive
CG5906	DRSC10557	2		inactive
Rab2	DRSC05017	5		inactive
Rab2	DRSC26810	10		inactive
rad50	DRSC04523	8		inactive
CG43347	DRSC23007	12		inactive
CG43347	DRSC23170	1		inactive
CG43347	DRSC25782	3		inactive
CG43347	DRSC29367	6		inactive
nrv2	DRSC00948	5		inactive
nrv2	DRSC03383	8		inactive
Acat1	DRSC17766	6		inactive
Acat1	DRSC28395	2		inactive
Lrt	DRSC06045	4		inactive
Lrt	DRSC27086	7		inactive
CG42337	DRSC11686	5		inactive
CG42337	DRSC23099	8		inactive
CG42337	DRSC27038	8		inactive
Cp15	DRSC11118	6		inactive
Cp15	DRSC28629	7		inactive
wts	DRSC22975	8		inactive
wts	DRSC25766	5		inactive
CG9928	DRSC03274	8		inactive
Cap-D3	DRSC02349	4		inactive
Cap-D3	DRSC27018	4		inactive

Single entries from the entries so far:
CG17650 [DRSC00510], mitotic cells, replicate 1 = 7
For “Outcome”, jus [DRSC26804] has inactive
Under “mitotic cells, replicate 1”, Cap-D3 [DRSC27018] shows 4
For “mitotic cells, replicate 1”, Cpr65Ax2 + Cpr65Ax1 [DRSC10344] shows 4
Entry for CG12641 (retired record) [DRSC23059] in “Outcome”: inactive
Entry for fuss [DRSC21452] under “mitotic cells, replicate 1”: 9
